Consider one molecule from paper PMC3393671.

These are yes or no findings as the source states them, for the method shown. Some entries that bind do so weakly or less than the wild type. Where a sequence is shown, tags or fusion partners need not be part of it.

Assay [1] deals with T1, Irga6 (GST tag cleaved off) (mouse) (UniProt Q9QZ85).
T1 sequence: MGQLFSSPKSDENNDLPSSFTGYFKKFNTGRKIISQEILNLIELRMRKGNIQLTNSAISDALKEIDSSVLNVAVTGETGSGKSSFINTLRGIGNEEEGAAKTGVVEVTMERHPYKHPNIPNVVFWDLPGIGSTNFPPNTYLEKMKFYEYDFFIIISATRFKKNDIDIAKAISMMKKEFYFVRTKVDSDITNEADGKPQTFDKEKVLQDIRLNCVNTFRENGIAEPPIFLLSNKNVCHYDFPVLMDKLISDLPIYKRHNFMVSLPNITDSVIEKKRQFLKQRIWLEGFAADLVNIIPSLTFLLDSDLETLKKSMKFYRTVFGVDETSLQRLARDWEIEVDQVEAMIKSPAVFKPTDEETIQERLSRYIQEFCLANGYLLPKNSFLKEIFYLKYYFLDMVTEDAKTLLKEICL
Description: dynamic light scattering; GTP-dependent oligomerization of 20 µM purified Irga6 with 10 mM GTP, without or with 20 or 80 µM ROP5BI pseudokinase domain; GST as inert control; both purified.

Assay [2] addresses T1, Irga6 (GST tag cleaved off) (mouse). Description: dynamic light scattering; GTP-dependent oligomerization of Irga6 with ROP5BIII; unpublished data.

B1: Irga6 (GST tag cleaved off) (protein, UniProt Q9QZ85 1-411)
chain: T1 sequence
Regarding B1, the binding entry in assay [1] and in assay [2] was “binds” in each case.
